These results are taken from paper PMC12421377, “Molecular basis for the recognition of low-frequency polyadenylation signals by mPSF”.

By UniProt entry, the sequences of proteins in these tests, tags left out.
UniProt O95639: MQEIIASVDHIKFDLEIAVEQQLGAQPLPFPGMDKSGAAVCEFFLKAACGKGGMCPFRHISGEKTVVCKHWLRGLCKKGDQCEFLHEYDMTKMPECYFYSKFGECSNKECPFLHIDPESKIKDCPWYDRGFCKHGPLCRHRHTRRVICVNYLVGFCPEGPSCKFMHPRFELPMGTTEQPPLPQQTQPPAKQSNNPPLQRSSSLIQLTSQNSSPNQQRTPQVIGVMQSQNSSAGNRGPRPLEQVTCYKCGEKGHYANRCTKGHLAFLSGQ

The target of this test is T1, WDR33 (residues 1-572) (human) (UniProt Q9C0J8).
T1 sequence: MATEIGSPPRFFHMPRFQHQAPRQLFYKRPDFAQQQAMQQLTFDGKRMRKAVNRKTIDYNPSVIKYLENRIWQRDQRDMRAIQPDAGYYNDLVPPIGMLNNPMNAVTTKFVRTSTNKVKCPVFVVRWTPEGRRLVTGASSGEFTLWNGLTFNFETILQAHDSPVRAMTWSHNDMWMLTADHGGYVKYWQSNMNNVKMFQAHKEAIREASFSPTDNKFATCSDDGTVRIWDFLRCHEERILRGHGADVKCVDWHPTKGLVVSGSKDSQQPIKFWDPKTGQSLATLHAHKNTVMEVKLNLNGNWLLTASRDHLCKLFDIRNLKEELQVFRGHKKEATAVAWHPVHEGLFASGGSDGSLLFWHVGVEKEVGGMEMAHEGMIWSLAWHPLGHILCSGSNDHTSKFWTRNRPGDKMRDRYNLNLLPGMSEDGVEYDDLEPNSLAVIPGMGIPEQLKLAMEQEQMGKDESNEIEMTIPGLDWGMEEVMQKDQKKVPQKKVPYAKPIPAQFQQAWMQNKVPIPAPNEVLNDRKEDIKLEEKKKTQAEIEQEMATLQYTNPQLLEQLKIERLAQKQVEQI
The experiment in a line: cryo-EM structure; 1.4 uM mPSF mixed with 25 uM 12-mer RNA oligo (AAUAAU or AGUAAA); 20 mM Tris pH 8.0, 150 mM NaCl, 2 mM DTT; on ice 1 h; both purified.

These are yes or no findings as the source states them, for the method shown. Some results given as binding are weak or reduced against the parent protein; the word gives no strength.

As to CPSF30 (from UniProt O95639 1-269), the binding result is listed as “binds”.
